These are yes or no findings as the source states them, for the method shown.
Tests used:
Assay in all cases: condition: competitor series starting at approximately 1000:1 over biotinylated human IgE; DELFIA epitope competition, immobilised IgG, biotinylated IgE
[1] = target: purified IgA (Calbiochem) (human)
[2] = target: purified IgM (Calbiochem) (human)
[3] = target: purified IgG (Calbiochem) (human)
[4] = target: purified IgD (Calbiochem) (human)

Measured: binding

B1: Antibody 1 IgG (antibody, V domains shown)
VH: QVQLVQSGAEVKKPGATVKLSCKVYGYIFTDYNIYWVRQAPGKGLEWMGLIDPDNGETFYAEKFQGRATMTADTSSDRAYMELTSLTFEDTATYYCATVLHRRLKGGYDYWGRGTLVTVSS
VL: QSVLTQPPSVSGAPGQRVTISCTGSSSNIGAGYDVHWYQQLPGTAPKLLIYDNFNRPSGVPDRFSGSKSGTSASLAIIGLQTEDEADYYCQSYDSSLSGSLFGTGTKLTVL
no binding: all assays above

Reference: patent US20090060919A1
